Test results from PMC11406360, “The enzymatic oxygen sensor cysteamine dioxygenase binds its protein substrates through their N-termini” (The Journal of Biological Chemistry, 2024).
These are yes or no findings as the source states them, for the method shown.

By UniProt entry, the sequences of proteins in these tests, tags left out. Where a name states a change or a piece, a line headed by the entry shows the natural chain unless it says otherwise.
UniProt Q96SZ5: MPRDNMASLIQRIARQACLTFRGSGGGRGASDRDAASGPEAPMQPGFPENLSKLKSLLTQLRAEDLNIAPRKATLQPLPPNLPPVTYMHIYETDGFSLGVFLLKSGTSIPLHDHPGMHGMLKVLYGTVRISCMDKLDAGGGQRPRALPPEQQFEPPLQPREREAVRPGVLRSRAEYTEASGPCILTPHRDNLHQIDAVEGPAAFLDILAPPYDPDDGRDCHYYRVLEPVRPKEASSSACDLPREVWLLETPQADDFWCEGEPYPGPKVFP
UniProt O15539: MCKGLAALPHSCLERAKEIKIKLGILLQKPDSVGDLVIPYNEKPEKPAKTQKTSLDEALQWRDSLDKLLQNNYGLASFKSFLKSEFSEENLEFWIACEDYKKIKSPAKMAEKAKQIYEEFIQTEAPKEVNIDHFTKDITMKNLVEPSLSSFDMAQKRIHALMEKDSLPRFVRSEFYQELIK
UniProt P24001: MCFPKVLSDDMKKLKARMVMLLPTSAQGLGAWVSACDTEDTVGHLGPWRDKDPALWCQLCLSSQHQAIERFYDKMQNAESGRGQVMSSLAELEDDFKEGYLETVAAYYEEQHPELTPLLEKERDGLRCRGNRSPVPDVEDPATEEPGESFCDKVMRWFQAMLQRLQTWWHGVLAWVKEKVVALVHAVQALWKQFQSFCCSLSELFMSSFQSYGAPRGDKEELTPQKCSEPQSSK

Biological target: 2-aminoethanethiol (cysteamine) dioxygenase (ADO), biotinylated, for SPR (human) (UniProt Q96SZ5)
Test: SPR; Biacore T200; biotinylated ADO immobilized on a Biotin CAP chip (∼2500 to 3000 RU), peptide/protein substrates injected; 4 °C; 20 mM Hepes pH 7.5, 500 mM NaCl, 10 mM DTT, 0.1% tween-20; 50 μl/min; multicycle, equilibrium steady state affinity 1:1 binding model; both purified

Binder | binding
AKGLAALPHSCLER (peptide, UniProt O15539 2-15) [RGS5-C2A peptide] | no binding
AFPKVLSDDMKKLK (peptide, UniProt P24001 2-15) [IL32-C2A peptide] | no binding
